Assay results as given in patent US20140088023A1.
No constants are given. Whether binding was seen depends on the method and setting. In cells and extracts the contact can be indirect. Some results given as binding are weak or reduced against the parent protein; the word gives no strength.

Experiments:
p53 [1] = molecular target: p53 (UniProt P04637); assay: co-IP of mixed E. coli extracts
p53 [2] = molecular target: p53 (UniProt P04637); assay: co-immunoprecipitation, gel filtration and immunocytochemistry of endogenous proteins in LNCaP cells (figure legend)
p53 [3] = molecular target: p53 (UniProt P04637); assay: co-IP with anti-p53 antibody from LNCaP cytoplasmic extract, Western blot
p53 [4] = molecular target: p53 (UniProt P04637); assay: co-IP with anti-p53 antibody of mixed E. coli extracts, Western blot for sGCα1
p53 [5] = molecular target: p53 (UniProt P04637); assay: co-IP of mixed E. coli (BL21) extracts, Western blot (figure legend)
p53 [6] = molecular target: p53 (UniProt P04637); assay: summary of co-IP and co-localization of endogenous proteins in LNCaP cells

Measured: binding

B1: soluble guanylyl cyclase alpha 1 (sGCα1) (enzyme, UniProt Q02108 1-690, looked up)
chain: MFCTKLKDLKITGECPFSLLAPGQVPNESSEEAAGSSESCKATVPICQDIPEKNIQESLPQRKTSRSRVYLHTLAESICKLIFPEFERLNVALQRTLAKHKIKESRKSLEREDFEKTIAEQAVAAGVPVEVIKESLGEEVFKICYEEDENILGVVGGTLKDFLNSFSTLLKQSSHCQEAGKRGRLEDASILCLDKEDDFLHVYYFFPKRTTSLILPGIIKAAAHVLYETEVEVSLMPPCFHNDCSEFVNQPYLLYSVHMKSTKPSLSPSKPQSSLVIPTSLFCKTFPFHFMFDKDMTILQFGNGIRRLMNRRDFQGKPNFEEYFEILTPKINQTFSGIMTMLNMQFVVRVRRWDNSVKKSSRVMDLKGQMIYIVESSAILFLGSPCVDRLEDFTGRGLYLSDIPIHNALRDVVLIGEQARAQDGLKKRLGKLKATLEQAHQALEEEKKKTVDLLCSIFPCEVAQQLWQGQVVQAKKFSNVTMLFSDIVGFTAICSQCSPLQVITMLNALYTRFDQQCGELDVYKVETIGDAYCVAGGLHKESDTHAVQIALMALKMMELSDEVMSPHGEPIKMRIGLHSGSVFAGVVGVKMPRYCLFGNNVTLANKFESCSVPRKINVSPTTYRLLKDCPGFVFTPRSREELPPNFPSEIPGICHFLDAYQQGTNSKPCFQKKDVEDGNANFLGKASGID
binds: all assays above
